# Assay results published in PubChem BioAssay AID485314 (National Center for Advancing Translational Sciences (NCATS), 2010).
# Out of some 340,000 compounds screened, about 4,500 (1.3%) were called active. The inconclusive results got no clear call from the source; some entries with a clear call stand among them for comparison. Calls come from the whole dose curve; as a rule, active = well fitted inhibition curve with a large enough effect; inconclusive = small, poorly fitted or top-dose-only effect, or another doubt; inactive = no such curve, though single readings can be large or run the other way. Where the call is inconclusive, the potency comes from a doubtful curve fit.
# Target: DNA polymerase beta (Homo sapiens) (UniProt P06746)
# Test: qHTS Assay for Inhibitors of DNA Polymerase Beta
# Conditions: Pol beta primer extension/strand displacement, fluorescence kinetic; activity change, negative = inhibition: at 114 µM (top of the series)
# Method in brief: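 Kinetic readout of DNA synthesis with strand displacement by Pol beta. Compound and 10 nM enzyme sit 15 min at room temperature; 50 nM substrate starts the reaction, read immediately and at 10 min.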
# % is set by controls: 0 for no effect and ±100 for the full control effect; potency is the fitted concentration of half-maximal effect.
Compound,"activity change, negative = inhibition",Potency
COc1cccc(/C=C2\SC(=S)N(N3C(=O)CCCC3=O)C2=O)c1,inactive: 3.29%,–
Cc1cc(C)nc(N2CCCC(C(=O)NNC(=O)c3ccncc3)C2)n1 (configuration not stated),inconclusive: -58.2% [inhibitor],–
CCOc1ccc(C(c2c(C)[nH]n(-c3ccccc3)c2=O)c2c(C)[nH]n(-c3ccccc3)c2=O)cc1OC,inactive: -1.17%,–
CCN(CC)CCNC(=O)c1ccc2c(=O)n3nc(Nc4cccc(Cl)c4C)sc3nc2c1,–,"inconclusive: 79.4 µM [inhibitor, single point]"
O=C(N/N=C/C=C\c1ccco1)c1ccccn1,–,"inconclusive: 28.2 µM [inhibitor, single point]"
O=C(Nc1ccc2oc(-c3ccccc3)nc2c1)c1ccncc1,–,"inconclusive: 22.4 µM [inhibitor, partial curve, poor fit]"
Fc1ccc(-c2ccc(-c3nn4c(-c5ccco5)nnc4s3)o2)cc1,–,active: 44.7 µM
Cc1cc(-c2ccccc2)nc2cc(C(=O)Nc3cc(C(F)(F)F)ccc3Cl)nn12,inconclusive: -40.6% [inhibitor],–
Cc1ccc(Cn2cc3c(n2)-c2c(oc(C(=O)Nc4ccc(F)cc4F)c2C)CC3)cc1,inactive: 5.88%,–
CCSc1nnc(NC(=O)C2C3C=CC(C3)C2C(=O)O)s1 (configuration not stated),–,"inconclusive: 89.1 µM [inhibitor, single point]"
CN(/N=C/c1ccc([N+](=O)[O-])o1)c1ccccc1,–,"inconclusive: 100 µM [inhibitor, partial curve, poor fit]"
CCCOC(=O)c1ccc(NC(=O)Cc2cccs2)cc1,–,"inconclusive: 20 µM [inhibitor, partial curve]"
Cc1cc(C)n2nc(SCN3C(=O)c4ccccc4C3=O)nc2n1,–,active: 44.7 µM
COc1ccccc1NC(=O)C(=O)N/N=C/c1cccs1,–,"inconclusive: 22.4 µM [inhibitor, full curve]"
CCC(=O)NC(=S)Nc1cccc(Cl)c1N1CCCC1,–,"inconclusive: 0.141 µM [inhibitor, full curve, poor fit]"
Cc1cc(C(=O)N/N=C/c2cc(Br)cc(Br)c2OC(=O)c2cccc(F)c2)n[nH]1,–,"inconclusive: 35.5 µM [inhibitor, partial curve, poor fit]"
COc1ccc(OC)c(/C=C2\SC(=S)N(NS(=O)(=O)c3ccc(C)cc3)C2=O)c1,–,"inconclusive: 79.4 µM [inhibitor, single point]"
O=C(Nc1cc(-c2nc3cc(Cl)ccc3o2)ccc1Cl)c1cc2ccccc2o1,inactive: -1.58%,–
Cc1nn(CCc2nn[nH]n2)c2nc(-c3ccc(C4CCCCC4)cc3)cc(C(F)(F)F)c12,–,"inconclusive: 89.1 µM [inhibitor, single point]"
COc1ccc(-c2cc(OC(=O)c3ccc(F)cc3)c3c(C)oc(C)c3c(=O)c2)cc1,–,"inconclusive: 79.4 µM [inhibitor, partial curve]"
O=c1[nH]c(CSc2nc3ccccc3s2)nc2ccccc12,inactive: -11.5%,–
Cc1cc(C)cc(NS(=O)(=O)c2ccc(NC(=S)NC(=O)c3cccs3)cc2)c1,–,"inconclusive: 4.47 µM [inhibitor, single point]"
CCCCNC(=O)Oc1c(Br)cc2sc(=O)oc2c1Br,inconclusive: -88.9% [inhibitor],–

# Gathered by group, the compounds so far containing bromine (two)
Compound,"activity change, negative = inhibition",Potency
Cc1cc(C(=O)N/N=C/c2cc(Br)cc(Br)c2OC(=O)c2cccc(F)c2)n[nH]1,–,"inconclusive: 35.5 µM [inhibitor, partial curve, poor fit]"
CCCCNC(=O)Oc1c(Br)cc2sc(=O)oc2c1Br,inconclusive: -88.9% [inhibitor],–

# Remaining list, next part:

Compound,"activity change, negative = inhibition",Potency
CC(=O)c1cccc(Nc2nn(-c3ccc(OC(F)(F)F)cc3)nc2C(C)=O)c1,inactive: -10.5%,–
Clc1cccc(CN2CCCCCC2)c1Cl,–,"inconclusive: 39.8 µM [inhibitor, single point]"
Cc1c(C(=O)N(Cc2ccc(N(C)C)cc2)Cc2ccco2)oc2cc(Br)ccc12,inactive: -13.6%,–
COc1ccc(CNC(=O)CCc2c(C)nc3nc(CNC(=O)OC(C)(C)C)nn3c2C)cc1,inactive: 37.2%,–
CCCSc1nnc2c(n1)OC(c1ccc(OCC(=O)O)cc1)Nc1ccccc1-2 (configuration not stated),–,"inconclusive: 89.1 µM [inhibitor, single point]"
CC1(C)CC(=O)c2cc(-c3nc(-c4ccc(Cl)cc4)cs3)c(=O)n(-c3cccc(F)c3)c2C1,inactive: 5.43%,–
C#Cc1ccc([C@@H]2C=C(C(=O)OCC=C)O[C@H](OCCCCO)C2)cc1,–,active: 17.8 µM
C#CCOCCOCCOCCNc1nc(N2CCN(C(=O)[C@H](Cc3cc4ccccc4[nH]3)n3cc([C@@H](N)Cc4ccc(O)cc4)nn3)CC2)nc(N2CCN(C(=O)[C@H](Cc3cc4ccccc4[nH]3)n3cc([C@@H](N)CC(C)C)nn3)CC2)n1,inactive: -3.46%,–
CCCCC(=O)Nc1ccccc1Oc1ccccc1,–,"inconclusive: 3.98 µM [inhibitor, single point]"
N/C(=N\OC(=O)c1cccc2ccccc12)c1cccc([N+](=O)[O-])c1,–,active: 50.1 µM
O=C1c2ccccc2-c2onc3ccc(NCc4ccco4)c1c23,–,"inconclusive: 3.16 µM [inhibitor, full curve, poor fit]"
CCN(CC)CCNC(=O)C1c2cc(OC)c(OC)cc2C(=O)N2CCc3ccccc3C12 (configuration not stated),–,"inconclusive: 39.8 µM [inhibitor, partial curve, poor fit]"
COc1ccc(C2C3=C(CC(C)(C)CC3=O)Nc3c2c(=O)[nH]c(=O)n3Cc2ccccc2)cc1 (configuration not stated),–,"inconclusive: 2.51 µM [inhibitor, single point]"
COc1cc(/C=N/NC(=O)Cc2nnc(NC(=O)c3ccccc3)s2)ccc1O,–,"inconclusive: 35.5 µM [inhibitor, full curve, poor fit]"
CC(C)(C)NC(=S)NNC(=O)c1ccncc1,–,"inconclusive: 100 µM [inhibitor, single point]"
O=C(Nc1cccc(F)c1)NC1CCN(Cc2ccccc2)CC1,–,"inconclusive: 28.2 µM [inhibitor, single point]"
CCn1c2ccccc2c2cc(NC(=O)CSc3nnc(-c4cccc(C)c4)o3)ccc21,–,"inconclusive: 22.4 µM [inhibitor, partial curve, poor fit]"
CCCCOc1cccc(C2C(C(=O)c3ccc(C)o3)=C(O)C(=O)N2c2nnc(C)s2)c1 (configuration not stated),–,"inconclusive: 25.1 µM [inhibitor, partial curve, poor fit]"
O=C(N/N=C/C=C/c1ccccc1)c1cc2c(ccc3ccccc32)o1,–,"inconclusive: 3.16 µM [inhibitor, full curve]"
O=C(NCC1(c2ccccc2)CCCC1)c1ccc(Br)cc1,–,"inconclusive: 89.1 µM [inhibitor, single point]"
N#Cc1nccnc1S(=O)(=O)c1cccs1,inactive: -5.82%,–
COc1cccc2cc(C(=O)C3=C(O)C(=O)N(CCN4CCOCC4)C3c3ccc(Cl)cc3)oc12 (configuration not stated),inactive: 39.4%,–
CCN(CC)C(=O)Oc1ccc2c(c1)O/C(=C\c1ccco1)C2=O,–,active: 44.7 µM

# Reprinted from the listing (three entries):
Compound,"activity change, negative = inhibition",Potency
O=c1[nH]c(CSc2nc3ccccc3s2)nc2ccccc12,inactive: -11.5%,–
Cc1cc(C)cc(NS(=O)(=O)c2ccc(NC(=S)NC(=O)c3cccs3)cc2)c1,–,"inconclusive: 4.47 µM [inhibitor, single point]"
CCCCNC(=O)Oc1c(Br)cc2sc(=O)oc2c1Br,inconclusive: -88.9% [inhibitor],–

# More results follow:

Compound,"activity change, negative = inhibition",Potency
CCc1cccc(NC(=O)c2oc3ccc4c(c3c2C)C(=O)CC(C)(C)O4)c1,inactive: 0.813%,–
O=C(NC(=S)NCc1ccco1)c1cccc(Cl)c1,–,"inconclusive: 0.794 µM [inhibitor, full curve, poor fit]"
CCOc1ccc(NS(=O)(=O)c2ccc3[nH]cc(C(=O)N4CCCCCC4)c(=O)c3c2)cc1,–,"inconclusive: 28.2 µM [inhibitor, partial curve]"
CCOC(=O)c1ccc(N2C(=O)Cc3cc(OCC)c(OCC)cc3C2c2ccccc2)cc1 (configuration not stated),inactive: 0.709%,–
COc1ccccc1-n1c(SCc2cc(=O)oc3cc(O)ccc23)nc2ccccc2c1=O,–,"inconclusive: 70.8 µM [inhibitor, single point]"
COc1cc(C(=S)N2CCN(c3cccc(Cl)c3)CC2)ccc1O,–,"inconclusive: 0.316 µM [inhibitor, full curve, poor fit]"
Cc1ccccc1C(=O)OCc1cc(=O)n2c(C)csc2n1,inactive: 2.51%,–
CCOc1ccc(C(=O)Nc2ccccc2OCc2cc(=O)n3ccccc3n2)cc1,inactive: -6.3%,–
O=C1CN(c2ccccc2F)C(=O)CN1c1ccccc1F,inactive: -1.73%,–
Cc1c(C(=O)N/N=C/c2ccoc2)cccc1[N+](=O)[O-],–,"inconclusive: 11.2 µM [inhibitor, partial curve]"
COc1cc(NC(=O)c2cc([N+](=O)[O-])ccc2NC(=O)CNCc2ccccn2)cc(OC)c1,–,"inconclusive: 12.6 µM [inhibitor, full curve, poor fit]"
CCc1ccc(-c2nn(CC(=O)NCc3ccccc3)c3c2cnc2ccc(C)cc23)cc1,inactive: -3.34%,–
Cc1c(NC(=O)c2ccccc2NC(=O)COc2ccccc2)cccc1C(=O)O,inconclusive: -95% [inhibitor],–
Cc1cc(OC(C)C)nc(NCc2ccccc2)n1,–,"inconclusive: 17.8 µM [inhibitor, partial curve]"
O=C(Nc1cccnc1)c1ccc(NS(=O)(=O)c2cc([N+](=O)[O-])ccc2Cl)cc1,–,"inconclusive: 50.1 µM [inhibitor, partial curve]"
S=c1[nH]nc(C2CC2)n1Cc1ccccc1,inactive: 69.9%,–
O=C(CSc1nc2cccnc2n1Cc1ccccc1)NCc1ccco1,–,"inconclusive: 10 µM [inhibitor, partial curve]"
O=C(N1CCOCC1)N1CCN(CC(O)COc2ccc3ccccc3c2)CC1 (configuration not stated),–,"inconclusive: 89.1 µM [inhibitor, single point]"
C=CCN1C(=O)/C(=C/c2ccc(OC(C)=O)c(OCC)c2[N+](=O)[O-])SC1=S,–,"inconclusive: 50.1 µM [inhibitor, partial curve]"
COCCN1C(=O)/C(=C/c2cc3c(cc2Br)OCO3)NC1=S,–,"inconclusive: 79.4 µM [inhibitor, single point]"
Cc1cc(C)c2c(=O)[nH]c(SCC(=O)N3CCOCC3)nc2n1,–,"inconclusive: 79.4 µM [inhibitor, single point]"
